PubChem BioAssay AID1259405, NCATS | 2018

Purpose: 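Mouse-designed siRNAs used to find CHO productivity engineering targets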 (primary screen)
Cells: Chinese hamster CHO-K1 ovary cells with stable secreted eGFP expression
Reagent: single siRNA against mouse genes, 0.8 pmol siRNA per well (2 µl of 400 nM stock)
Timing: 3 days
Read-out: 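Per-well intracellular GFP measured by laser scanning cytometry, plus viability from ATP luminescence, each relative to plate median of non-targeting control wells, in %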
Scale: GFP, % of control: higher = more GFP per well, higher productivity; viability (ATP), % of control: higher = more viable cells (more ATP)
Rule for the call: 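a knock-down is called active if GFP reaches 120% or more of non-targeting control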
Here is one part, drawn at random, of about 50,000 reagents. Over the whole deposit, about 4,000 (8%) were called active. 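Mouse siRNA library applied to hamster cells; one well for each siRNA.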 A number with no mark means an inactive call. Reagents against one gene are numbered here.

Miox #1 — GFP, % of control: 60.9; viability (ATP), % of control: 80.9
Miox #2 — GFP, % of control: 122 (active); viability (ATP), % of control: 97.9
Miox #3 — GFP, % of control: 32.2; viability (ATP), % of control: 47.7
Gpr142 #1 — GFP, % of control: 74.5; viability (ATP), % of control: 45.6
Gpr142 #2 — GFP, % of control: 110; viability (ATP), % of control: 76.4
Gpr142 #3 — GFP, % of control: 86.8; viability (ATP), % of control: 89.9
Prdx4 #1 — GFP, % of control: 100; viability (ATP), % of control: 55
Prdx4 #2 — GFP, % of control: 64.5; viability (ATP), % of control: 38.4
Prdx4 #3 — GFP, % of control: 73.8; viability (ATP), % of control: 72
Neurog2 #1 — GFP, % of control: 87; viability (ATP), % of control: 97
Neurog2 #2 — GFP, % of control: 61.1; viability (ATP), % of control: 56.4
Neurog2 #3 — GFP, % of control: 69.7; viability (ATP), % of control: 95.9
Rabac1 #1 — GFP, % of control: 81.6; viability (ATP), % of control: 80.8
Rabac1 #2 — GFP, % of control: 86; viability (ATP), % of control: 79
Rabac1 #3 — GFP, % of control: 120; viability (ATP), % of control: 57.4
Trp53bp2 #1 — GFP, % of control: 77.3; viability (ATP), % of control: 81.5
Trp53bp2 #2 — GFP, % of control: 139 (active); viability (ATP), % of control: 78.9
Trp53bp2 #3 — GFP, % of control: 160 (active); viability (ATP), % of control: 51.7

Not a retest: entries from further up.
Prdx4 #3 — GFP, % of control: 73.8; viability (ATP), % of control: 72
Neurog2 #1 — GFP, % of control: 87; viability (ATP), % of control: 97
